The test in a line: qHTS Assay to Find Inhibitors of Chronic Active B-Cell Receptor Signaling. As to conditions: ABC-DLBCL IkBa-CBG/CBR reporter, luminescence ratio (green luciferase fused to IkBa over red control in TMD8 lymphoma cells), 4 h. Put shortly:
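Compounds up to 46 uM were incubated four hours with TMD8 cells whose green CBG68 luciferase is fused to IkappaBalpha; red CBR luminescence normalised the signal, and concentration-effect curves were fitted to fusion, red and ratio data.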
(In general: qHTS replaces the single test concentration by a dilution series.)

[1] abbreviates: measured here: IkBa-CBG green luminescence.
Where [2] appears, read: measured here: CBR red luminescence, cell number.

The list shows a part of the results. Further columns of the screen follow, without active or inactive calls. Most of these compounds were active or inconclusive in the main read-out, so they are no random draw. Words in brackets tell the shape of the fitted curve; partial curves, single points and poor fits give uncertain potencies.

A word on the AC50: it is the midpoint of the concentration-response curve, whichever way the signal moves. Regarding `CC1CCN(c2nc(-c3ccco3)c3c(c2C#N)CC(C)(C)OC3)CC1`, the AC50 under setting [1] is 5.8 µM [rising, full curve, poor fit].
For the molecule `Cc1ccc(Cl)cc1-n1ncc2c(N3CCCCCC3)ncnc21`, under setting [2], the AC50 is 35.5 µM [falling, single point].
As for `O=C(Nc1ccc(Cl)cc1C(F)(F)F)c1ccc(Cl)cc1`, under setting [2], the AC50 was 2.51 µM [rising, partial curve, poor fit].
The same measure, in the same setting: as for `Cc1ccc(-c2nc(CS(=O)CC(=O)N3CCN(c4ncccn4)CC3)c(C)o2)cc1` (configuration not stated), the figure is 6.31 µM [rising, full curve, poor fit]; as for `Cc1ccccc1C(=O)Oc1cc(N)n(S(=O)(=O)c2ccccc2)n1`, 25.1 µM [falling, single point].
`CCN(CC)C(=O)CSc1nc2ccc(NC(=O)CSc3nnc(COc4ccccc4C)n3C)cc2s1`: the AC50 under setting [2] was 35.5 µM [falling, single point].
Same read-out and setting: as for `CCc1ccc(S(=O)(=O)/N=C2\C=C(Nc3cccc(C(=O)O)c3)C(=O)c3ccccc32)cc1`, the figure is 5.62 µM [falling, partial curve].
Turning to `COc1cc2c(cc1OC)C(CC#N)=NC(C)(C)C2`, the AC50 under setting [1] was 2.06 µM [falling, full curve].
`COc1ccc(C(=O)NC(CC(=O)O)c2cc([N+](=O)[O-])ccc2Cl)c(SC)c1` (configuration not stated): the AC50 under setting [2] is 35.5 µM [falling, single point] and the AC50 under setting [1] was 17.8 µM [rising, partial curve, poor fit].
Take `Cc1ccccc1OCC(=O)NCC1CCCO1` (configuration not stated): the AC50 under setting [2] was 6.51 µM [rising, partial curve, poor fit].
Consider `CC1C/C(=C/c2cccn2C)C(=O)/C(=C/c2cccn2C)C1` (configuration not stated), for which the AC50 under setting [2] is 20.6 µM [falling, partial curve, poor fit].
Turning to `CN(C)/C=C/C(=O)c1ccc(-c2ccc(Cl)cc2Cl)o1`, the AC50 under setting [2] was 22.4 µM [falling, partial curve, poor fit].
Same read-out and setting: next, `CC(=O)OCC(=O)Nc1ccc([N+](=O)[O-])cc1Cl`: 17.8 µM [rising, single point]; `O=C(Nc1cccc(-c2nnc(-c3ccccc3)o2)c1)c1ccco1`: 6.31 µM [rising, full curve, poor fit]; `CCN(CC)C(=O)c1sc2c(c1C)c(=O)n(-c1ccc(OC)cc1OC)c(=O)n2CC(=O)c1ccc(Cl)cc1`: 35.5 µM [rising, single point].
Consider `O=C(CSc1nc2ncccc2[nH]1)Nc1ccc2c(c1)OCCO2`, for which the AC50 under setting [2] was 23.1 µM [falling, single point].
Consider `COc1ccc(CNC(=O)C2CCN(S(=O)(=O)N3CCC4(CC3)OCCO4)CC2)c(OC)c1`, for which, under setting [2], the AC50 is 23.1 µM [rising, single point].
Regarding `Cc1ccc(Nc2nc(N)c([N+](=O)[O-])c(NCc3ccccc3)n2)cc1`, under setting [2], the AC50 is 11.2 µM [rising, partial curve, poor fit].
`COc1cccc(/C(C)=N/Nc2ncc(Cl)cc2Cl)c1`: the AC50 under setting [1] was 23.1 µM [falling, single point].
As to `COc1ccc(C(=O)Nc2ccccc2C(=O)N/N=C/c2ccncc2)cc1OC`, the AC50 was 1.58 µM [falling, full curve] under setting [2] and 14.1 µM [rising, single point] under setting [1].
`COc1ccc2nc3cccc(OC)c3nc2c1`: the AC50 under setting [2] was 5.62 µM [falling, full curve, poor fit].
On to `COc1cc(NS(=O)(=O)c2ccc(OC)c(C)c2C)c(OC)cc1Cl`, for which the AC50 under setting [2] is 1.46 µM [falling, partial curve, poor fit].
For the molecule `O=C(C(=O)N1CCN(Cc2ccc3c(c2)OCO3)CC1)c1c[nH]c2ccccc12`, the AC50 under setting [2] was 8.91 µM [falling, partial curve, poor fit].
Same read-out and setting: as for `COc1ccc(NC(=O)CN2CCc3ccccc3C2)cc1OC`, the figure is 11.2 µM [rising, partial curve]; as for `O=C(NCCOc1ccc(Cl)cc1)c1ccc2c(c1)OCCO2`, 1.64 µM [falling, partial curve, poor fit]; as for `Cn1ncc2c(N3CCC(Cc4ccccc4)CC3)ncnc21`, 35.5 µM [falling, single point].
Still for that read-out and setting: as for `COc1cccc(C2CC(c3ccccc3Cl)n3ncnc3N2)c1` (configuration not stated), the figure is 0.184 µM [falling, full curve, poor fit].
On the same count and under the same terms, next, `O=c1ccc(/C=C/c2ccccc2)nn1Cc1ccccc1Cl`: 3.26 µM [rising, partial curve, poor fit]; `COCCNC(=O)C(c1ccc(C)cc1)N(CCOC)C(=O)CCC(=O)Nc1ccccn1` (configuration not stated): 0.501 µM [rising, full curve, poor fit].
`COc1ccc(CNC(=O)CCN2C(=O)c3ccccc3C2=O)cc1`: the AC50 under setting [2] is 0.562 µM [falling, full curve, poor fit].
Same read-out and setting: next, `Cn1c(=N)n(CC(O)c2cccc3ccccc23)c2ccccc21` (configuration not stated): 12.6 µM [falling, single point]; `N#Cc1nc(-c2ccccc2F)oc1N1CCCCC1`: 4.47 µM [rising, full curve, poor fit]; `S=c1[nH]cc(-c2ccc(Cl)cc2)n1Cc1ccccc1`: 1.26 µM [falling, full curve].
Take `COc1ccc(C(=O)Nc2ccc(Cl)cc2C(=O)NCCN2CCOCC2)cc1`: under setting [2], the AC50 was 35.5 µM [falling, single point].
Regarding `COc1ccccc1C(C[N+](=O)[O-])c1c[nH]c2ccccc12` (configuration not stated), the AC50 under setting [2] is 12.6 µM [falling, single point].
Consider `COc1ccccc1CO/N=C/NC(=O)c1c(OC)ccnc1Oc1ccc(F)cc1`, for which the AC50 under setting [2] is 23.1 µM [falling, single point].
Still for that read-out and setting: next, `N#C/C(=N\Nc1cccc2ccccc12)c1nnc2n1CCCCC2`: 16.4 µM [rising, single point]; `COc1ccc(Br)cc1CN(C)C(=O)c1ccc2c(c1)NC(=O)C(C)S2` (configuration not stated): 35.5 µM [falling, single point]; `Cc1ccc(C(=O)Nc2ccccc2C(=O)N2CCOCC2)cc1[N+](=O)[O-]`: 25.9 µM [falling, single point].
The same measure, in the same setting: as for `CCOCC(=O)Nc1cc(Cl)c(OC)cc1OC`, the figure is 12.6 µM [rising, partial curve].

The record behind these values is PubChem BioAssay AID493014 (National Center for Advancing Translational Sciences (NCATS), 2011).
